Measurements: publication PMC5608759
No constants are given. Whether binding was seen depends on the method and setting. In cells and extracts the contact can be indirect. These calls come from enrichment with a bait or labelling near it, and not all partners need be listed.

Sequences of proteins named here, by UniProt entry; tags and fusion partners are left off.
UniProt P04150: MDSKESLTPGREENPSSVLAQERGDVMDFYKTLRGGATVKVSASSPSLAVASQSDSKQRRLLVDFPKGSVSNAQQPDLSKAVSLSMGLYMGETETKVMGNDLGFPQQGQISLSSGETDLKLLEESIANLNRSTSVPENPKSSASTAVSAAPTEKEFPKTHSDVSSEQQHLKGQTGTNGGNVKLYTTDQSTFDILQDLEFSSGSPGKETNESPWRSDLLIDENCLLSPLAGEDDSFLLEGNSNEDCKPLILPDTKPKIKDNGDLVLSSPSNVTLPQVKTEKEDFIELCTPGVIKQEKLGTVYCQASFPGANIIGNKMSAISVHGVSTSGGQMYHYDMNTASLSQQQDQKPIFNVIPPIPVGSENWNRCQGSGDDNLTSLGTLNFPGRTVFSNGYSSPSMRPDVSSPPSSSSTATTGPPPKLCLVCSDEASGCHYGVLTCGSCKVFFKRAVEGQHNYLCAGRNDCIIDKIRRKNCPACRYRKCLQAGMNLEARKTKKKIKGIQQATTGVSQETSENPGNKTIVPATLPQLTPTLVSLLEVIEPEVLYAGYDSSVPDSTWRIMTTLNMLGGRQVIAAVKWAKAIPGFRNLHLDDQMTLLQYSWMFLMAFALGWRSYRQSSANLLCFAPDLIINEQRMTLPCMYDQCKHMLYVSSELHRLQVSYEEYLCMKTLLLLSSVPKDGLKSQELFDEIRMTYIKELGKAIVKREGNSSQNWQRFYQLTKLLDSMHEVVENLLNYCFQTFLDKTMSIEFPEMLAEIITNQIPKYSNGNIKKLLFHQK

Target: human glucocorticoid receptor alpha (GRα), expressed in S. pombe (human) (UniProt P04150)
Experiment: affinity purification with mass spectrometry; anti-GR antibody on epoxy-activated magnetic beads; lysates of S. pombe expressing hGRα (empty vector as control) grown at 30 °C or 39 °C (heat shock 30 min); lysis buffer 250 mM NaCl, 20 mM Tris pH 7.5, 1% Triton X-100, 100 mM potassium acetate; 4 °C, 1 hour, 6 washes; SDS-PAGE and LC-MS/MS

Row | binding | Binder
1 | binds | fba1 (protein, UniProt P36580 1-358) MGILDIVPTGVITGDNVLKLFTYAREHGFAIPAINVTSSSTAIAALEAAREARSPIILQTSNGGAHFFAGKESSNEGQKASIAGSIAAAHYIRSIAPFFGVPVVMHSDHCAKKLLPWMDGMFEADEAYFKIHGEPLFSSHMLDLSEEPKKENIAQVKEYCKRAVPMKIWIEMEIGITGGEEDGVDNSHVSHTELYTQPEDIWDVYRELSSVTPYFSIAAAFGNVHGVYKPGNVKLQPALLGQHQAYVKEQLKTTNDKPVFFVFHGGSGSSVNEFRTGIKCGVVKVNIDTDTQFAYVEGVRDYVLKYKDYLMTPVGNPEGADKPNKKKFDPRVWIHEGEKTMTKRVLTALEDFYTVNTL
2 | binds | rps1102 (protein, UniProt P0CT74 1-152) MATELVVQSERAFQKQPHIFQNAKKGAGRRWYKDVGLGFKTPAEAIYGEYVDKKCPFVGQVSIRGRILTGTVVSTKMHRTIIIRREYLHFIPKYNRYEKRHKNLAAHVSPAFRINEGDVVTVGQCRPLSKTVRFNVLRVVKHTEGPKQFGKF
3 | binds | rpl901 (protein, UniProt Q10232 1-190) MGRDIYKDETLTIPKGVTVDIKARNVTVTGPRGTLKQNLRHVDIEMKKQGNTIKFIVWHGSRKHNACIRSVYSIINNMIIGVTQGFRYKMRLVYAHFPININLTENGTVVEIRNFLGERITRVIKCLPGVTVSISSAVKDEIILEGNSLENVSQSAANIKQICNVRNKDIRKFLDGIYVSERGNIEELEE
4 | binds | tom70 (protein, UniProt O14217 1-625) MSGISNAENGKAIVSSGVLNSVSAFVRRHRTFVYTIGAVAVFATVGGVYHVQQKKASHKRSKKLKAHQDKAESKVNEGKNEAAKVVKEEDLKSSETGKDVETAAAAAAAAKKKKKNKKKVKAKKVGDSSVDKIATEESVKSMTKEERAKLAAELKTLGNKAYGQKEYANAIDYYTQAITCSHDPIFFSNRAACYAAIGDFEQVIKDTSEALSLDSSYVKALNRRSAAYEQLGKLDEALMDSTVSCIFDGFANESMTATVERLLKKVAEKKSSALLKERPPKLPAASFIQTYLDSFHAQPKPLFDNKFDGDAALAEAYEYLEKGEYQLSYDKAKESCLGSFSSPSVNARTHNLVGTFKFVSGDSKGSMENFNAAIKLDRKFIQPYIRLSAAYLDENDNEKMWKVLNDAESVDKTDSDLYYHRAQVRFVSGEFAEAISDYQKSIALDDSFIYSHIQLGVAQYKTHAIAESMKTFEDCKKRFPNSSEVYNYFGEILLDQQKFDDAVKNFDHAIELEKREHLTIMSAMPLINKALAVFQWKKDISQAENLCRQALSADPECDIAIASMAQFLLQQGKAREALEYFEKSAQLARTESEMVNAFSYAEATRTQIALTEKYPQLVGRLSNPM
5 | binds | def1 (protein, UniProt O43024 1-963) MSENKKFRPKKVGNTEQVSEKQHTDTALNISQDNKTSSSSAKRGAKGRRGTKGKSGPANSSQTSNIEGSNALELEFDRDSQLSVLQELFPSWTIDDLSFALEEADRDLELTILHITEGHASKWGEVKKKPIPKTKSKPTSHAPVSDNVSSTFRNATRKSKKPSASKDTSRGVRKSKAGAPSDPSSVHAPSSLEKPAGTGDLPSSEISTKAPASTTVSSSVDPGTINEDSSMKDHTTSNEQASVLTSANTAASTNTNGTAGGTSASAKSTSAADQAVASSKPIKKAWASVAKSKKKVTPAPAPAPESEPSKPSIAPSQPSKTNVSAAYEKPAELSSSSVPFPHKSQDSATPANVETTPSTATSAPKKSTAPFAINAVKPAPGLSNISSASLPKPSFAKQAAVGSQSSTTSMTTARLLSDRFPVVMPVANTAAIPEKVQVRFGSLTLGGEDKKSTKSSSDNIAQSGPRSSYFPKKTVSPKPEAKKEASKVAESTKIPKKQHTSAYESRAPQSKVPENLKESHVNETPYRGLHDVNLPASGNASSVSAIPPQVSAQTTIPAASTSATSGPVVGKQSAGYGGIYSPATHGISPQPYAGASLIPPSTGAAFNNETASSNAGETTALPYSSRFMNPVENRSANSPFDNFQHIDHSTELGYASNTSQQYQQTSHPAYTTMSPIEYGQAAPAAHYYNERNQYSQYDNVAGSASNTPDVHSVMHNKVASSNATSLPAAGTATPSPVVSQQQPQPYAFPPMYPIPYVSYGYGTMPYNNNKFGQPQQGYMSQSGFNDFPPIFGGHSNVYNRQQPGNVSGMSGTQTSNPINNATANTSGMTEKAAGHRDSVIGNGGVTGANSMSSTLGGLSSMSGMGRAAPGMFMGNVGSFENLSANAASPYGLPPQQTPLTNAATQQTTSFQSNANKVNNANSQPAGFPFNSGASTNAGSNGLGGYNAYNQSFINRPGGWYGNA
6 | binds | nap1 (protein, UniProt O59797 1-393) MVENVNINNKRAGKMSAAPTPHNTPSGTSAPNFGAKAPQVNTIDEGDENLEAIDGKLGSLLHLTSEGVSELPEAVQRRISGLRGLQKRYSDLESQFQKELFELEKAYAKKYAPIFKRRSEVVRGADEPTEEEIKKGEAADENEKKEPTSSESKKQEGGDDTKGIPEFWLTAMKNVLSLSEMITPEDEGALSHLVDIRISYMEKPGFKLEFEFAENPFFTNKILTKTYYYMEESGPSNVFLYDHAEGDKVDWKENADLTVRTVTKKQRNKNTKQTRVVKVSVPRDSFFNFFNPPTPPSEEDEESESPELDELLELDYQIGEDFKEKLIPRAVEWFTGEALALENYDGFSDLDVEEDEDDVESSSNEEVSDSDEEDSDSKHTAHGQQNAAECRQQ
7 | binds | rpl501 (protein, UniProt P52822 1-294) MPFIKAVKSSPYFSRYQTKYRRRREGKTDYYARKRLIAQAKNKYNAPKYRLVVRFSNRFVTCQIVSSRVNGDYVLAHAHSSELPRYGIKWGLANWTAAYATGLLVARRALAKVGLADKYEGVTEPEGEFELTEAIEDGPRPFKVFLDVGLKRTSTGSRVFGAMKGASDGGLFIPHSPNRFPGFDIETEELDDETLRKYIYGGHVAEYMEMLIDDDEERYQKQFSGLIADGIESDQLEDIYAEAYAKIREDPSFQKSGKDAAAFKAESLKHTQRKLTAEERKERFNAKVIEAGRA
8 | binds | rpl1702 (protein, UniProt O59794 1-187) MVRYSAAPALETKCAKARGAYLRTHFKNSREVAFTINGMNLKKAFIFLDNVKEHKQAVPFRRFNGGVGRTAQGKEFGVTQARWPVKSVNFFYDLLKNAEANAEAKGLDMDKLIIKHVQVNAAPKQRRRTYRAHGRVTAYLSSPSHIEIIVAEEEEAVPKANDTVSRVSLKQGAKARNLAARKAITSA
9 | binds | tdh1 (protein, UniProt P78958 1-336) MAIPKVGINGFGRIGRIVLRNALVAKTIQVVAINDPFIDLEYMAYMFKYDSTHGRFDGSVEIKDGKLVIDGNAIDVHNERDPADIKWSTSGADYVIESTGVFTTQETASAHLKGGAKRVIISAPSKDAPMYVVGVNEEKFNPSEKVISNASCTTNCLAPLAKVINDTFGIEEGLMTTVHATTATQKTVDGPSKKDWRGGRGASANIIPSSTGAAKAVGKVIPALNGKLTGMAFRVPTPDVSVVDLTVKLAKPTNYEDIKAAIKAASEGPMKGVLGYTEDAVVSTDFCGDNHSSIFDASAGIQLSPQFVKLVSWYDNEWGYSRRVVDLVAYTAAKDN
10 | binds | psu1 (protein, UniProt Q9UR09 19-417) APFRHPHHLLNKRDVSVVTSKVYAYTTVTLEAAASAISTNGAAKEAATAAGDAETTSSVAASVTPAASSSVAASVTPVASSSVAASVTPVSSSAVVDSATSAAASSSVIPTSSSVVASSSEVASSTTSSAAASATSTGSSSGGFQDGVYDCTDFPSDQSGVVALDYLGYGGYSGIQIGDGAGSSCVEGAYCSYACSPGMLKTQWPSTQPSDGETRGGLLCKGGKLYRTNTAYDNLCENGVGTASVQNTLGQGVAICQTDYPGSENMVIPTYVGGGATSPLSVTDNANYFQWEGKGTSAQYYVNKAGYTAEQGCQWGTSSGDYGNWSPLVFGAGMTDGTTWLSISQNPLTSQLANYNVKIVGADGASVSGTCVFENGAFQNGGSGCTVGITSGSGVFVFY
11 | binds | Zfs1 (protein, UniProt P47979 1-404) MVYSPMSRPQVPLAFRQWPPYNYKSDPLVNSKLSQSTTSVNAGPSLISPSFLDSYANSSSLLHKPSTNLGSLKTSSLLASDEVFPSSVMPQLRPLDSSLSVSPEMDGWPWHHNSSSNPQGYAWTPSLLSSNATSYLHSGSSPHGNTSNHPSPISSLESLPSRSSTGSGSLDFSGLANLHDDSKSLAMSLNMAGVPVSVDENSQTSFPFVHGQPESTMSRKPKLCVQSKSMTNIRNSVAKPSLVRQSHSAGVIPIKPTASNASIRNAPSNLSKQFSPSGNSPLTEASKPFVPQPSAAGDFRQAKGSASHPHGSGSSNGVAPNGKRALYKTEPCKNWQISGTCRYGSKCQFAHGNQELKEPPRHPKYKSERCRSFMMYGYCPYGLRCCFLHDESNAQKSATIKQSP
12 | binds | eno101 (protein, UniProt P40370 1-439) MAIQKVFARQIYDSRGNPTVEVDLTTETGIHRAIVPSGASTGIWEALEMRDGDKTKWGGKGVLKAVGNVNNIIAPAVVKANLDVTDQKAADEFLLKLDGTENKSKLGANAILGVSMAICRAGAAQKKLPLWKYIAENFGTKGPYVLPVPSFNVLNGGSHAGGDLAFQEFMILPTGAPSFSEAMRWGAETYHTLKSIAKKRYGSSAGNVGDEGGIAPDLQTPQEALDLIVEAINKAGYEGKIKIGLDVASSEFYVDGKYDLDIKAAKPKPENKLTYQQLTDLYVELSKKYPIVSIEDPFDQDDWSAWTHMKAETDFQIVGDDLTVTNVKRLRTAIDKKCANALLLKVNQIGSVTESLNAVRMSYEAGWGVMVSHRSGETADTFISHLTVGIGAGQLKSGAPCRSERLAKYNELLRIEEELGSEGVYAGAHAGKYIKAAKF
13 | binds | zuotin homolog of DNAJ chaperone protein (protein, UniProt Q9Y7I8 1-442) MSAGDSIQLFPPTTKQAIEASFVPHGKISPLIKRAVEPVGPLFLAHARRQRHGRTFSEDERLEVKNKVQEEVKEESEDEEEDPAMLRADPKEWKQQDHYAVLGLSKYRYKADTEQIKKAHLKKVLKHHPDKKAASGNINDDSFFKCIQKAYEILSDPVRRRQFDSVDENADVEPPESTTKETFFELWTPVFESEARFSKKQPVPSLGTIESTRAEVDNFYNFWYNFDSWRSFEYLDKDIPDDGESRDNKRFQEKKNRSERQKNKARDNARLRNLVDTALASDPRIKLFKEQEKAAKAARKWEREAGAREAAAAAQKKKEEEERRAAEEAAAKASAAAANKKAKEDKKKAQKRDKKVVKNALKDFNYFSATDVPSAEHVDSVLKDVDVIMSKLGEGELGQLAADINAEKAAGAASVQAVFDKFAKMFIERGSMSSADVVFFAQ
